This is one part of the list.
Target: OsWRKY34 (Oryza sativa, UniProt Q0JBA9 1-250)
Assay: protein-binding microarray (RPBM); PBS, 2% BSA, 51.3 ng/ul salmon testes DNA, 50 uM zinc acetate, 200 nM TF, 25 C, 1 h; high values mean tight binding
Conditions: protein: recombinant; tags: N-terminal polyhistidine and DsRed monomer fusion (pET32a); label: CyDye5-dUTP incorporated in the synthesized complementary strand; 3' TTTTT single-stranded linker to array surface; dsDNA, one strand shown
Summary of the method: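 For the binding signal, per-feature fluorescence intensity was read in arbitrary units on an Axon 4000B scanner. Before scanning, a 2% BSA-blocked custom Agilent array made double-stranded with Cy5-dUTP was washed after 1 h at 25 °C with 200 nM protein and 50 µM zinc acetate. The proteins were Ni–NTA-purified transcription factors with N-terminal polyhistidine and DsRed fusions, expressed in E. coli BL21-CodonPlus.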

Chains of the proteins cited; added tags and fusions are not shown.
UniProt Q0JBA9, entry or part of it: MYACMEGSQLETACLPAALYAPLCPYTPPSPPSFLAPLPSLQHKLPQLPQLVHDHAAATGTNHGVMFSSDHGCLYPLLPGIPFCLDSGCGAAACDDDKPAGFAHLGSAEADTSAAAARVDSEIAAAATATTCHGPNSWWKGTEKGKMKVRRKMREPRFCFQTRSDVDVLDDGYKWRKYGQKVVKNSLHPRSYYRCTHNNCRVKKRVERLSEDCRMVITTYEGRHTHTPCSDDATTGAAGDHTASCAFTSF

Sequence | binding signal
TATTATTGTTCTGTATCCGGTTCCACGATCCGCCAATCCGCGGAGTCACCTAGTGCAG | 11200 fluorescence intensity (a.u.)
GCCTCCTCTCGAGTTCACCTGCCACCCGCCCGCCGCCGCCCGGAGTCACCTAGTGCAG | 12100 fluorescence intensity (a.u.)
CAAACGCCTTTTTTTTTTCTTTTCTTTTTTTTTTCGCGTCCGGAGTCACCTAGTGCAG | 9200 fluorescence intensity (a.u.)
ACGGTCAAACATTTTTAAAAAAGTCAACGGCGTCAAATATCGGAGTCACCTAGTGCAG | 12000 fluorescence intensity (a.u.)
CCGGCAAATCCTTAATTAATTAATTATGCATCATCTATTTCGGAGTCACCTAGTGCAG | 9170 fluorescence intensity (a.u.)
GTGGTGGTGCGCGGCGGCGGCGGCGGGGAGGGGTGTGTGTCGGAGTCACCTAGTGCAG | 24500 fluorescence intensity (a.u.)
ACCCCGCGCTTCACTTCGCTTCACTTCGGCTTCGCTTCCACGGAGTCACCTAGTGCAG | 8460 fluorescence intensity (a.u.)
AAGTTCTTGCCGGCCCAACTCAACACCCGCTGCTCGATCCCGGAGTCACCTAGTGCAG | 8680 fluorescence intensity (a.u.)
GCTTCTTTGATTGTTGAGCGGGTTGTGTTCTTCATCACTTCGGAGTCACCTAGTGCAG | 9990 fluorescence intensity (a.u.)
CCAGTGATCCCACCTATGGTCTTTTGCCTTCAGTACCTGACGGAGTCACCTAGTGCAG | 10400 fluorescence intensity (a.u.)
AATTCCTGGCTACGCCACTGCTGCTCTATATATCAAGCCGCGGAGTCACCTAGTGCAG | 8080 fluorescence intensity (a.u.)
GGGGTGATCTAACTTATAAGTAAATGTTATAGCGTGAAATCGGAGTCACCTAGTGCAG | 8770 fluorescence intensity (a.u.)
GCGTAGACCATTTCTTCAAACCTCAATACATATTAAACATCGGAGTCACCTAGTGCAG | 8860 fluorescence intensity (a.u.)
TTGTTCACTTTGCTACCATTTTCAACCTTATTAGTTTTTGCGGAGTCACCTAGTGCAG | 8380 fluorescence intensity (a.u.)
ACATTTGACCGTCCTATTTTTTTTATATCATCGGGCGTCCCGGAGTCACCTAGTGCAG | 10900 fluorescence intensity (a.u.)
GTCGCCGACCACCTCTGGGACTTTTACCTTGGCGGCCGCTCGGAGTCACCTAGTGCAG | 9350 fluorescence intensity (a.u.)
TAGAATGGCTGGTTCACAGCTCCTCCACCTCGTTTTTTCCCGGAGTCACCTAGTGCAG | 8840 fluorescence intensity (a.u.)
AAGGTCGTTGACTTTTTATTCGTCCTCGTCTAATTTCTCCCGGAGTCACCTAGTGCAG | 33600 fluorescence intensity (a.u.)
CAGGGCCCTCTTGCCTTTCGATCGACACGCATCGGTCTCTCGGAGTCACCTAGTGCAG | 9030 fluorescence intensity (a.u.)
AGCATTCAGATTTTTCAGTATGATATATCACTACCTAGCTCGGAGTCACCTAGTGCAG | 8060 fluorescence intensity (a.u.)
GAATTCATCGTCTTCTCCTTTTGGTACTTAGCTGTTAATACGGAGTCACCTAGTGCAG | 8980 fluorescence intensity (a.u.)
AGAGCTGCTTGCGCACTAAAACTGGGGCATCTCTATCAACCGGAGTCACCTAGTGCAG | 8380 fluorescence intensity (a.u.)
GGTGGCCATTTCTATCCAGGTTTCTCCATCACGCCGCCGCCGGAGTCACCTAGTGCAG | 12000 fluorescence intensity (a.u.)

2 entries from above, as labelled records.
AATTCCTGGCTACGCCACTGCTGCTCTATATATCAAGCCGCGGAGTCACCTAGTGCAG
  binding signal: 8080 fluorescence intensity (a.u.)
TAGAATGGCTGGTTCACAGCTCCTCCACCTCGTTTTTTCCCGGAGTCACCTAGTGCAG
  binding signal: 8840 fluorescence intensity (a.u.)

Source: PMC7819943, “Rice protein-binding microarrays: a tool to detect cis-acting elements near promoter regions in rice”
